## Assay results

Data taken from PubChem BioAssay AID1159506, deposited by NCATS (2015).

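Genome-wide siRNA knockdown in TC32 Ewing sarcoma cells, comparing luciferase light from an NR0B1-promoter reporter with a CMV-promoter reporter 48 hours after transfection. Each siRNA was applied at 20 nM. A z-score of the log NR0B1-over-CMV signal, less the median of siRNAs with the same seed; more negative means a stronger specific loss of the NR0B1 reporter.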

This is part of the screen; most of the strongest results are not listed here. Sequences are the guide (antisense) strand, without overhang.

Sequence: UCCGUUAUCACAAGGAGGU
gene: KLRG1
seed-corrected z-score: 0.07056

Sequence: UUGCAACCCUCGAAGAUUU
gene: CRYGN
seed-corrected z-score: 0.2058

Sequence: UUCUAUUGCACUGUCCUUG
gene: LOC646522
seed-corrected z-score: 0.3231

Sequence: UCCAUAGUCAAUGCAUUUG
gene: LOC646629
seed-corrected z-score: -1.692

Sequence: UCUUGUUCUGACAUUGUCC
gene: CNOT6
seed-corrected z-score: 0.3769

Sequence: UUUCUCUGGACAGUUGACC
gene: BABAM1
seed-corrected z-score: -0.5788

Sequence: UUAUGCAGAAACGACAUUC
gene: FSHB
seed-corrected z-score: -0.2965

Sequence: UUCUCAGCCACCACAUAUU
gene: LOC390998
seed-corrected z-score: 0.5018

Sequence: AUAGUAGUCACCCAAAUGA
gene: OR4A16
seed-corrected z-score: 0.249

Sequence: UUCUCAAUCACAUCCAGCC
gene: TBC1D10B
seed-corrected z-score: 0.06474

Sequence: UCCGAUAUCACCCAGUUGC
gene: EXOC8
seed-corrected z-score: 0.2572

Sequence: AAAUCAUCACAUAGGAUGC
gene: OR52M1
seed-corrected z-score: -1.222

Sequence: AAAAGUUCUACAUAGCUGU
gene: HNRNPH2
seed-corrected z-score: 0.696

Sequence: UCUGCGAACCCUGAUGUCC
gene: LOC285095
seed-corrected z-score: 0.2477

Sequence: UUUGUUUCAUGAAUUGAAU
gene: XKR8
seed-corrected z-score: -1.193

Sequence: UACUUUCAGACUGAUUUGG
gene: IL10RA
seed-corrected z-score: 0.1911

Sequence: UGACUUCAUAGUGCUCGCC
gene: DPP9
seed-corrected z-score: -0.3414

Sequence: UCCCGGUUGAGGUUCUUGC
gene: GLIPR2
seed-corrected z-score: -0.4918

Sequence: AAUGCGAUCACUACCUGUC
gene: HERC4
seed-corrected z-score: -0.1902

Sequence: AACUCUCUCAUGAUAGCUG
gene: SH3YL1
seed-corrected z-score: -0.03895

Sequence: AAAUGGUGAUUUGCAAUUC
gene: ONECUT1
seed-corrected z-score: -0.2904

Sequence: UGUCUUAUAUAGGAACUGG
gene: ZNF563
seed-corrected z-score: -0.8856

Sequence: AUCUUGUAACUCCUUAUUG
gene: RAI14
seed-corrected z-score: 0.4291

Sequence: AAAGGCAAAAUUCUUGUCC
gene: U2AF2
seed-corrected z-score: -0.4115

Sequence: AGUGAGAUGAGCAAAAGGC
gene: TNFSF11
seed-corrected z-score: -0.6453

Sequence: UUGUAGGAAAGGAUCACUC
gene: GCLC
seed-corrected z-score: -0.6082

Sequence: UUAAUUCUCUCUGAUGUCG
gene: RHOXF1
seed-corrected z-score: 0.3372

Sequence: UGAGGAACAGGUCCUGCUG
gene: NXNL1
seed-corrected z-score: -1.078

Sequence: UUAGUUUGAGUCAGGAUUG
gene: RAG2
seed-corrected z-score: 0.3562

Sequence: UGUGGUGUUAGGUUUAGCU
gene: PODXL
seed-corrected z-score: -0.5793

Sequence: AUAGUAGCUGCAUCAGGCC
gene: TPP2
seed-corrected z-score: -1.625

Sequence: UAAAUUUCUCGGUCUUAGC
gene: ZNF362
seed-corrected z-score: 0.3818

Sequence: UCAUAUAUAUGGUUCCAUG
gene: ASB3
seed-corrected z-score: 1.152

Sequence: UGAAGUUGCAGAAAACUCG
gene: COL11A2
seed-corrected z-score: -0.006328

Sequence: AAAGGAUAGGGCAAAAUAG
gene: SMIM12
seed-corrected z-score: 0.06013

Sequence: UGUAGUUUAACAUUAAAAG
gene: PRR15
seed-corrected z-score: -0.007337

Sequence: AUACUUGCUCUGCAGAAGC
gene: KATNB1
seed-corrected z-score: -0.1642

Sequence: UUUCUUAGCUCCAAUUUUC
gene: DDRGK1
seed-corrected z-score: 0.6162

Sequence: AUCAUCGUCAGAAUUCUGC
gene: LEO1
seed-corrected z-score: -0.4918

Sequence: UACACGAACAGGUACAUCU
gene: DNASE1L2
seed-corrected z-score: -0.1206

Sequence: UCGGAUUUUACCGUCGUUC
gene: CFAP52
seed-corrected z-score: -0.3958

Sequence: UAUGAGGGCAGGUUAUAGU
gene: ECRP
seed-corrected z-score: 0.1392

Sequence: UCUGCGCAAAGAACACUGC
gene: PAQR3
seed-corrected z-score: 0.03712

Repeated from the top, 5 entries:

- UCCGUUAUCACAAGGAGGU against KLRG1 : seed-corrected z-score 0.07056
- UUGCAACCCUCGAAGAUUU against CRYGN : seed-corrected z-score 0.2058
- UUCUAUUGCACUGUCCUUG against LOC646522 : seed-corrected z-score 0.3231
- UCCAUAGUCAAUGCAUUUG against LOC646629 : seed-corrected z-score -1.692
- UCUUGUUCUGACAUUGUCC against CNOT6 : seed-corrected z-score 0.3769